For at least one compound, name, drawing or mass did not settle the structure.
system: AMP-activated protein kinase (AMPK); assay: ADP Quest assay for AMPK activators; assay type: biochemical; design: key: fold AMPK activation with vs without activator at 30 µM; settings: fold of AMPK activation to phosphorylate SAMS peptide without and with an activator at the concentration of 30 µM
Method: ADP Quest™ Assay for AMPK Activators
This method evaluates AMP-activated protein kinase (AMPK) activity through detecting the accumulation of ADP product using an ADP Quest kit and determining the E30 values of the small molecular AMPK activators. ADP Quest kit (DiscoveRx, Fremont, Calif.) is stored at −20° C. before use. Before an experiment, thaw the kit (include assay buffer, ADP standard solution, reagent A and reagent B) and equilibrate to room temperature. Dispense the ADP Quest reagents into single-use aliquots and store at −20° C. The compound concentrations typically range from 0 µM to 100 µM by 2-fold dilution. AMP concentrations range from […] to 1 mM as the reference control. In an assay, thaw and equilibrate the assay buffer, reagent A and reagent B to room temperature for 30 minutes prior to use. Mix ATP, SAMS peptide substrate and compound, and place them into the 384-well assay plate. Add reagent A and B based on the assay kit protocol. Incubate the assay plate at room temperature for 30 minutes after addition the mixture followed by the addition of AMPK protein (Invitrogen, CA) to initiate the AMPK phosphorylation reaction. At the same time, reactions with AMPK activator AMP in the absence of enzyme is included as blank control. The reaction fluorescence signal is monitored and recorded on Envision in kinetic mode with the excitation wavelength of 530 nm and emission wavelength of 590 nm. The E30 value, defined as the fold of AMPK activation to phosphorylate SAMS peptide without and with an activator at the concentration of 30 µM, is calculated and analyzed using Prism 5.0.

Q: Which E30 does the source give for CC1(C)Cc2cc(C(=O)O)ccc2NC1c1cccc(NC(=O)C2CC2)c1 (centres unmarked) [Example 188, 2-(3-(Cyclopropanecarboxamido)phenyl)-3,3-dimethyl-1,2,3,4-tetrahydroquinoline-6-carboxylic acid] here?
A: 1.32

Q: How did the E30 turn out when CC1(C)Cc2cc(C(=O)O)ccc2NC1c1ccc(NC(=O)C2CCCCC2)cc1 (centres unmarked) [Example 198, 2-(4-(Cyclohexanecarboxamido)phenyl)-3,3-dimethyl-1,2,3,4-tetrahydroquinoline-6-carboxylic acid] was run?
A: 1.2

Q: CC1(C)Cc2cc(C(=O)O)ccc2NC1c1cccc(NC(=O)CCc2ccccc2)c1 (centres unmarked) [Example 210, 3,3-Dimethyl-2-(3-(3-phenylpropanamido)phenyl)-1,2,3,4-tetrahydroquinoline-6-carboxylic acid] was tested. Which E30 did it give?
A: 1.27

Q: CC1(C)Cc2cc(Cl)cc(C(=O)NS(C)(=O)=O)c2NC1c1cccc(N2CCOCC2)c1 (centres unmarked) [Example 104, N-[6-Chloro-3,3-dimethyl-2-(3-morpholin-4-yl-phenyl)-1,2,3,4-tetrahydro-quinoline-8-carbonyl]-methanesulfonamide] was tested. Which E30 did it give?
A: 1.36

Q: How did the E30 turn out when CC1(C)Cc2cc(C(=O)O)ccc2NC1c1cccc(NC(=O)Cc2ccccc2)c1 (centres unmarked) [Example 199, 3,3-Dimethyl-2-(3-(2-phenylacetamido)phenyl)-1,2,3,4-tetrahydroquinoline-6-carboxylic acid] was run?
A: 1.18

Source: US8586747B2, “3,3-dimethyl tetrahydroquinoline derivatives” (Hoffmann-La Roche Inc., priority 2010, dated 2013)
